Laboratory results taken from the supplement of paper PMC10849652.
The list shows a part of the results.

The chains behind the UniProt entries cited, without tags or fusion partners. Where a name states a change or a piece, a line headed by the entry shows the natural chain unless it says otherwise.
UniProt Q9NP31, whole entry, looked up: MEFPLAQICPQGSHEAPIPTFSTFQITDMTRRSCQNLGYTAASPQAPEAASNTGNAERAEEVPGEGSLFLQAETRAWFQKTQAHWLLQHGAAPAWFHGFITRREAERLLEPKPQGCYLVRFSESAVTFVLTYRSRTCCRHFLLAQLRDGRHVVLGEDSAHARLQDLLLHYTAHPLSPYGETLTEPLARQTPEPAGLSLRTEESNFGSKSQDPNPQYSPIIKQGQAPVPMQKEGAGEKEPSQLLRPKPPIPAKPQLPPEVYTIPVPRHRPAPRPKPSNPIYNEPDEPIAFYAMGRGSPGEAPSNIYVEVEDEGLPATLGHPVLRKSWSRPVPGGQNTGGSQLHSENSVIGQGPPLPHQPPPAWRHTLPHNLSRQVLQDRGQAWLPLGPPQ
UniProt Q2M3G4: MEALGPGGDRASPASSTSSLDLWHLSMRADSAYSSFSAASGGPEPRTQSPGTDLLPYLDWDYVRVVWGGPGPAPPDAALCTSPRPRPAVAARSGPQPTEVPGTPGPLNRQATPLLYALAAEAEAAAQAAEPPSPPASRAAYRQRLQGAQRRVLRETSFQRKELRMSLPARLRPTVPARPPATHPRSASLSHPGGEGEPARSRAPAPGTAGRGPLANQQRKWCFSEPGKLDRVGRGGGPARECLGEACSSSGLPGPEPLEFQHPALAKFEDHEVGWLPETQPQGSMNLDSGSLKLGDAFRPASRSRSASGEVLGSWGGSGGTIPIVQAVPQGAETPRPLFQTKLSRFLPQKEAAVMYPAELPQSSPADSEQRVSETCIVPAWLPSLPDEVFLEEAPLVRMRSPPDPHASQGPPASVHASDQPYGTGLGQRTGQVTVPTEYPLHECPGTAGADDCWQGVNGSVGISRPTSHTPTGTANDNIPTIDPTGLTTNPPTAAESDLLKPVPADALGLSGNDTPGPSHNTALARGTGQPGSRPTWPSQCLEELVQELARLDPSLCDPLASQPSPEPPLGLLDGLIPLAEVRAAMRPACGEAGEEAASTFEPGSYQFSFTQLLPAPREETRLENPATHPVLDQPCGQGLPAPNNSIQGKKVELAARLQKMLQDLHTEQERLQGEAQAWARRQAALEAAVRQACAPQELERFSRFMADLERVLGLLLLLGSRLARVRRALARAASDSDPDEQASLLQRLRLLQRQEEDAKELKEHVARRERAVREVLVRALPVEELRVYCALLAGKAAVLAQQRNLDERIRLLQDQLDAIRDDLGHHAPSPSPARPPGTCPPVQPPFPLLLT
UniProt P63208, whole entry, looked up: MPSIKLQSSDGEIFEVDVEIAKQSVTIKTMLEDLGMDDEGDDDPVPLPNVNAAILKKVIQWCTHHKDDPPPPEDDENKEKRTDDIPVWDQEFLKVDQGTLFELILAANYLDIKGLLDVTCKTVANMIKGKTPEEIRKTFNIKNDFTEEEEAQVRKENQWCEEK
UniProt Q15427: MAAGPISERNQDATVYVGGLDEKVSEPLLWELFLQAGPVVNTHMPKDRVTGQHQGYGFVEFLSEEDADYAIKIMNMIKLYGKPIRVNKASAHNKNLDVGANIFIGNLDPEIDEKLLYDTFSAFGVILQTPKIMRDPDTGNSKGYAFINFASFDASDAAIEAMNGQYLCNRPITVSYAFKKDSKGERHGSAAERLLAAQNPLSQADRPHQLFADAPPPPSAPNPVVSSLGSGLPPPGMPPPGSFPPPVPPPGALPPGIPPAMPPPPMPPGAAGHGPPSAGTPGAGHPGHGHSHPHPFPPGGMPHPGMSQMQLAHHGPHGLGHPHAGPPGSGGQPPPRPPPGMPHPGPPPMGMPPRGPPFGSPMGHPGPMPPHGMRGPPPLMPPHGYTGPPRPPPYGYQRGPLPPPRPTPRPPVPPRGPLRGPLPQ
UniProt Q9BWJ5: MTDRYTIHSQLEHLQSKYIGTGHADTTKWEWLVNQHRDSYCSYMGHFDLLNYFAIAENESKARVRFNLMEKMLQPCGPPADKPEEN
UniProt Q9H173: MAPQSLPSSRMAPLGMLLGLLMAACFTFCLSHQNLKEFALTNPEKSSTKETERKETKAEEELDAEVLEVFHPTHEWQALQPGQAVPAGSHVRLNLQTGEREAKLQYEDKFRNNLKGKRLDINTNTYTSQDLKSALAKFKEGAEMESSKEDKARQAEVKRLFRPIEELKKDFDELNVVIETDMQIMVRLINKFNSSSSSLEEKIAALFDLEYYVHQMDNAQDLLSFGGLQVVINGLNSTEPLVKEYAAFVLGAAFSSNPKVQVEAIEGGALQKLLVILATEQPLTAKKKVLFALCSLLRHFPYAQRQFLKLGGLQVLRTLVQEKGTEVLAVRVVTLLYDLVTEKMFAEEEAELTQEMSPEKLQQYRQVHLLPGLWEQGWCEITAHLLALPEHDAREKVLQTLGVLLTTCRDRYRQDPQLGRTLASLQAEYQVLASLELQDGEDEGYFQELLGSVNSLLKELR
UniProt A0MZ66, whole entry, looked up: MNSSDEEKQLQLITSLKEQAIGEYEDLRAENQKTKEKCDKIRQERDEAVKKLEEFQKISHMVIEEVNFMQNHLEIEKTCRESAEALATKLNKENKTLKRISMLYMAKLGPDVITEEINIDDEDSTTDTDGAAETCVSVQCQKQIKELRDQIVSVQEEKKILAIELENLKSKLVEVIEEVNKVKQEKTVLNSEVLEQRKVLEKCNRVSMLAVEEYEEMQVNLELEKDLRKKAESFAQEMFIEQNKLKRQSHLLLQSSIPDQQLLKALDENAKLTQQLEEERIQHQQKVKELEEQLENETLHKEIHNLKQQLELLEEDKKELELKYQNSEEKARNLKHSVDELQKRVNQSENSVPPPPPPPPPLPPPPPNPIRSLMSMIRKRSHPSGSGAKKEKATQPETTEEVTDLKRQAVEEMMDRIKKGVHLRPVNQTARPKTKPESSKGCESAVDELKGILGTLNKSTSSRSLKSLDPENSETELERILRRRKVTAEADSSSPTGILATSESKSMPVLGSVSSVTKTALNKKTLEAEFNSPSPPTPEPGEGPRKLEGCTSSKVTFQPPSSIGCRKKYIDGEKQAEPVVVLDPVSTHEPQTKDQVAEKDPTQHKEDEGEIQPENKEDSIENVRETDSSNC
UniProt Q9BRV8: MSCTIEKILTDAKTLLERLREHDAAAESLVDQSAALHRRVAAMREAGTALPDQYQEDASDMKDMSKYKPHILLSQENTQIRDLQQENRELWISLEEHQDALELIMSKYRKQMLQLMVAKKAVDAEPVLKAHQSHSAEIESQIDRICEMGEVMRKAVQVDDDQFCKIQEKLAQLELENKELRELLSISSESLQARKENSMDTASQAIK
UniProt P50453: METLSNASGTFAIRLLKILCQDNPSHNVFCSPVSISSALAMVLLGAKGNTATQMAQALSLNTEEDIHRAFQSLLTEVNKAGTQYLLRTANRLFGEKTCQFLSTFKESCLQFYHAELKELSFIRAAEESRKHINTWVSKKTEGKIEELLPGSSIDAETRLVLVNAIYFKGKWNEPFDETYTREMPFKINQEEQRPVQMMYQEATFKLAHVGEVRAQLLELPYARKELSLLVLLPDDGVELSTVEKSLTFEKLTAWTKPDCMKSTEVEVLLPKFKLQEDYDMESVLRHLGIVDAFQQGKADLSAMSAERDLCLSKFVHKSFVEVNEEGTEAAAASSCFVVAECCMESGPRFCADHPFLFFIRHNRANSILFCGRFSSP
UniProt P84101: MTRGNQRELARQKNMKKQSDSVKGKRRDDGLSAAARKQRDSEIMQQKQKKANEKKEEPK
UniProt Q9UP95: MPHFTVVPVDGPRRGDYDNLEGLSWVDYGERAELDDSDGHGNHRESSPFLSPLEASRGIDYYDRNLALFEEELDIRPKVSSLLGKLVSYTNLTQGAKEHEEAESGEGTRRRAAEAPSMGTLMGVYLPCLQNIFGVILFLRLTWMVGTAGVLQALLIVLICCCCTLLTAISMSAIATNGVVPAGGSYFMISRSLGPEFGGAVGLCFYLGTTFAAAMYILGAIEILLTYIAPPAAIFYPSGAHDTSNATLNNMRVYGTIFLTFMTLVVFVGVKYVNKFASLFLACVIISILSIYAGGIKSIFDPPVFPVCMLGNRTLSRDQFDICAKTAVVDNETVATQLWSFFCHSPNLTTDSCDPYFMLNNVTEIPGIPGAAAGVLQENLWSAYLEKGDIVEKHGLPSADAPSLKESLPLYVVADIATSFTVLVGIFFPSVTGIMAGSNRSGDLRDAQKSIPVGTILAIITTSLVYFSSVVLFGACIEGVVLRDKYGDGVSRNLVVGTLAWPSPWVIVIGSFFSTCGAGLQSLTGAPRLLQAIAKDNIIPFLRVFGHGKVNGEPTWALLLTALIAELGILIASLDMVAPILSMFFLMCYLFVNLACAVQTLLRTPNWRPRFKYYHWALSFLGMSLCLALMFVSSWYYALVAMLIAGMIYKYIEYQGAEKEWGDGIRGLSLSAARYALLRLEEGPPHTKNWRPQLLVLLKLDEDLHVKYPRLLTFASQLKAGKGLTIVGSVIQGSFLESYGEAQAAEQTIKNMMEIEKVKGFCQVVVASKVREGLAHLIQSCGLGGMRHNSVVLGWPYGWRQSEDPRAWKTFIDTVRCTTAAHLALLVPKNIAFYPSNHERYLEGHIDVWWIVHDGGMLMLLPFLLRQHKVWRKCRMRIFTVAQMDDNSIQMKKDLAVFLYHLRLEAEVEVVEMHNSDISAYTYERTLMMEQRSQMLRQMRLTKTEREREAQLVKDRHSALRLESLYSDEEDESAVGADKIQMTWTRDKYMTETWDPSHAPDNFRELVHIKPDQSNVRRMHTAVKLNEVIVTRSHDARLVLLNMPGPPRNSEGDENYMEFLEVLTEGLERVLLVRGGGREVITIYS
UniProt P53985: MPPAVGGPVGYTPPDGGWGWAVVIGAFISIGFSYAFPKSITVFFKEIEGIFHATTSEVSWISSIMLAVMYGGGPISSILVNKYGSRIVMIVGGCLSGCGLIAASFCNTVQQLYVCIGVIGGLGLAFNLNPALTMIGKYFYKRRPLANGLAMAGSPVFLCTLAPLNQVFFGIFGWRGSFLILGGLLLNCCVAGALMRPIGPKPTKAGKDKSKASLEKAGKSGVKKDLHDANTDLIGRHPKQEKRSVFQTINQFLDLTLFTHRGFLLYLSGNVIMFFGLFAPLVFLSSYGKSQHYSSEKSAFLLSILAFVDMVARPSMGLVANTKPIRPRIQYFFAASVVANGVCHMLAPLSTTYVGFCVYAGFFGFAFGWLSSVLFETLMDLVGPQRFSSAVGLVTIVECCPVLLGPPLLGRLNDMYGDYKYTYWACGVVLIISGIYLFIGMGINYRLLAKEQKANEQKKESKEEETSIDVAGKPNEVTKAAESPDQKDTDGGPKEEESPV
UniProt P34897: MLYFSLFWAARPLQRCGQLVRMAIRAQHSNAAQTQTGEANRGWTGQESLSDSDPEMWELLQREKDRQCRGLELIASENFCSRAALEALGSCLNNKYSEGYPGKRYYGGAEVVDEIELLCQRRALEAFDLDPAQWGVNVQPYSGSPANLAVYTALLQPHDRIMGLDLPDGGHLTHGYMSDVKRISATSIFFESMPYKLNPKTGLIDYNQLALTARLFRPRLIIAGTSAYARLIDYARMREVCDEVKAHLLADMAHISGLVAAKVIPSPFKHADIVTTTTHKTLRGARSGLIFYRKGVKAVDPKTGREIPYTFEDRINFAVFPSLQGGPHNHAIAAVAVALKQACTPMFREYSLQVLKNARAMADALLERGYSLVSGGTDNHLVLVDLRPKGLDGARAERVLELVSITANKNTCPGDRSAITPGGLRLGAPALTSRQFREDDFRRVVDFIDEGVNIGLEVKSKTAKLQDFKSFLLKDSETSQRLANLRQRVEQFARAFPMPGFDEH
UniProt Q86XK3: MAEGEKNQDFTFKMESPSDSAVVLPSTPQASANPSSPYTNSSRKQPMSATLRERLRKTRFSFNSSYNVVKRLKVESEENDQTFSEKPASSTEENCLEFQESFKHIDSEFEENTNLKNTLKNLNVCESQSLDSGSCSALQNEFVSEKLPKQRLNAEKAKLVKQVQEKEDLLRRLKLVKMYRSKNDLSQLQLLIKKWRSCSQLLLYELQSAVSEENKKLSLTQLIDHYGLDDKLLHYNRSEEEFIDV
UniProt P41440: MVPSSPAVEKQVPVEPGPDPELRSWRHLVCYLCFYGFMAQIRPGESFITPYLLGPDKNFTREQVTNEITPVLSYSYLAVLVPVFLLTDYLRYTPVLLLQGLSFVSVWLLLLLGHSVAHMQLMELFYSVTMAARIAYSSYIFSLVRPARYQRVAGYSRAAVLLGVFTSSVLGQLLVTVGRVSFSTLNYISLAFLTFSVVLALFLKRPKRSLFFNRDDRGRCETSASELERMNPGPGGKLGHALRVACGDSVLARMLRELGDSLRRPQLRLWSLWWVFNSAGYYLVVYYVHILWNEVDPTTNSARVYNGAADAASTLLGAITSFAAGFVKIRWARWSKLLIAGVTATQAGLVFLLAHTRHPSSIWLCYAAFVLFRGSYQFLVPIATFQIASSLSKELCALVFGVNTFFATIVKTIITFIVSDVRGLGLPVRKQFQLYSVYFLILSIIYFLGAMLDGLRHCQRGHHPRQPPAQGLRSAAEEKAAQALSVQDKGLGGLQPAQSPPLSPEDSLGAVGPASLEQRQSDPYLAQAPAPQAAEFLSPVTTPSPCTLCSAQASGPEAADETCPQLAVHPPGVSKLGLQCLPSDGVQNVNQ

How the values were obtained:
Experiment in all cases: log2 fold change, soluble protein after heating vs DMSO (PISA); higher = thermal stabilisation; K562 lysate, 10 uM; active = over 0.2 and 3.5 SD of the protein, either way, in both replicates (recomputed)
erlotinib = compound: C#Cc1cccc(Nc2ncnc3cc(OCCOC)c(OCCOC)cc23)c1 [erlotinib]
Procedure, shortened: (§1)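 Values give the log-two fold change in thermal stability against solvent controls, from duplicates. Crude K562 extract at 1 mg/mL protein, made by dounce homogenisation in PBS pH 7.4 with 1 mM MgCl2, was treated with 10 μM compound for 30 min. After 3 min heating across 48°C-58°C, aliquots were pooled, adjusted to 0.5% NP-40 at 4°C and centrifuged at 21,000xg for 90 min. The supernatant was measured by TMTpro 16plex LC-MS/MS with channel sums equalised.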

[1] = compound: C/C(=N\NC(=O)C1=CC(=CC=C1)S(=O)(=O)N2CCOCC2)/C3=C(C=CC(=C3)Cl)O
Procedure, shortened: as §1

[2] = compound: C1=CC(=CC=C1C2=NC3=C(N2)C=C(C=C3)C(=O)N)OC4=CC=C(C=C4)Cl
Procedure, shortened: as §1

[3] = compound: C1=CC2=C(C=CC(=C2)/C=C\3/C(=O)NC(=NCC4=CC=CS4)S3)N=C1
Procedure, shortened: as §1

[4] = compound: C1=CC2=NC=CN=C2C=C1/C=C/3\C(=O)NC(=O)S3
Procedure, shortened: as §1

[5] = compound: C1=CC=C(C=C1)C2=NC(=C(N2)C3=CC=NC=C3)C4=CC(=C(C=C4)Cl)O
Procedure, shortened: as §1

[6] = compound: C1=CC=C2C(=C1)C3=NNC4=CC=CC(=C43)C2=O
Procedure, shortened: as §1

[7] = compound: C1CCN(C1)C(=O)NC2=CC=CC(=C2)NC3=NC=C(C(=N3)NCCC4=CN=CN4)Br
Procedure, shortened: as §1

[8] = compound: C1CN(CCC1(CC2=CC=C(C=C2)Cl)N)C3=NC=NC4=C3C=CN4
Procedure, shortened: as §1

IRAK-1-4 Inhibitor I = compound: C1COCCN1CCN2C3=CC=CC=C3N=C2NC(=O)C4=CC(=CC=C4)[N+](=O)[O-] [IRAK-1-4 Inhibitor I]
Procedure, shortened: as §1

Measured: log2 fold change

SH3GLB1 isoform 2 (UniProt Q9Y371)
inactive: erlotinib 0.05 | [1] -0.001 | [2] 0.022 | [3] -0.025 | [4] -0.071 | [5] 0.002 | [6] 0.013 | [7] -0.028 | [8] -0.036 | IRAK-1-4 Inhibitor I -0.008

SIGMAR1 (UniProt Q99720)
inactive: erlotinib -0.02 | [1] -0.034 | [2] 0.022 | [3] 0.07 | [4] 0.003 | [5] 0.06 | [6] -0.02 | [7] 0.027 | [8] 0.022 | IRAK-1-4 Inhibitor I -0.002

SGTB (UniProt Q96EQ0)
inactive: erlotinib -0.072 | [1] -0.008 | [2] 0.003 | [3] 0.024 | [4] 0.014 | [5] 0.003 | [6] -0.01 | [7] 0.074 | [8] 0.039 | IRAK-1-4 Inhibitor I -0.016

SH2D2A isoform 2 (UniProt Q9NP31)
inactive: erlotinib -0.046 | [1] 0.078 | [2] 0.06 | [3] 0.105 | [4] -0.022 | [5] 0.146 | [6] -0.074 | [7] 0.038 | [8] 0.126 | IRAK-1-4 Inhibitor I -0.025

SF3A2 (UniProt Q15428)
inactive: erlotinib 0.012 | [1] -0.105 | [2] -0.005 | [3] 0.011 | [4] -0.043 | [5] -0.032 | [6] 0.005 | [7] -0.014 | [8] -0.009 | IRAK-1-4 Inhibitor I 0.017

SHC1 isoform 6 (UniProt P29353)
inactive: erlotinib 0.029 | [1] -0.024 | [2] 0.05 | [3] 0.035 | [4] 0.04 | [5] 0.011 | [6] -0.043 | [7] -0.005 | [8] 0.001 | IRAK-1-4 Inhibitor I 0.012

SIRT5 (UniProt Q9NXA8)
inactive: erlotinib -0.022 | [1] 0.066 | [2] 0.017 | [3] 0.029 | [4] 0.004 | [5] -0.022 | [6] -0.036 | [7] 0.016 | [8] 0.026 | IRAK-1-4 Inhibitor I 0.023

SHROOM1 (UniProt Q2M3G4)
inactive: erlotinib 0.04 | [1] -0.046 | [2] 0.046 | [3] -0.03 | [4] -0.011 | [5] -0.041 | [6] 0.014 | [7] -0.01 | [8] 0.004 | IRAK-1-4 Inhibitor I 0.028

SKP1 (UniProt P63208)
inactive: erlotinib -0.005 | [1] 0.032 | [2] 0.037 | [3] -0.001 | [4] -0.016 | [5] 0.016 | [6] 0.003 | [7] 0.003 | [8] 0.009 | IRAK-1-4 Inhibitor I -0.008

SF3B4 (UniProt Q15427)
inactive: erlotinib 0.048 | [1] -0.042 | [2] 0.031 | [3] 0.022 | [4] -0.017 | [5] -0.012 | [6] -0.04 | [7] -0.013 | [8] 0.049 | IRAK-1-4 Inhibitor I 0.016

SLAIN2 (UniProt Q9P270)
inactive: erlotinib 0.019 | [1] -0.002 | [2] 0.059 | [3] 0.01 | [4] -0.095 | [5] -0.003 | [6] 0 | [7] -0.027 | [8] 0.046 | IRAK-1-4 Inhibitor I 0.002

SFSWAP isoform 2 (UniProt Q12872)
inactive: erlotinib 0.022 | [1] -0.044 | [2] 0.006 | [3] 0.052 | [4] -0.115 | [5] -0.091 | [6] -0.006 | [7] 0 | [8] 0.023 | IRAK-1-4 Inhibitor I -0.006

SF3B5 (UniProt Q9BWJ5)
inactive: erlotinib 0.039 | [1] -0.074 | [2] 0.061 | [3] 0.021 | [4] 0.01 | [5] -0.052 | [6] 0.057 | [7] 0.05 | [8] 0.039 | IRAK-1-4 Inhibitor I -0.036

SIL1 (UniProt Q9H173)
inactive: erlotinib 0.018 | [1] -0.169 | [2] -0.008 | [3] 0.016 | [4] -0.019 | [5] 0.044 | [6] 0.01 | [7] -0.025 | [8] 0.04 | IRAK-1-4 Inhibitor I 0.049

2 records picked at random from the list so far, as already listed:
SFSWAP isoform 2 (UniProt Q12872)
inactive: erlotinib 0.022 | [1] -0.044 | [2] 0.006 | [3] 0.052 | [4] -0.115 | [5] -0.091 | [6] -0.006 | [7] 0 | [8] 0.023 | IRAK-1-4 Inhibitor I -0.006

SLAIN2 (UniProt Q9P270)
inactive: erlotinib 0.019 | [1] -0.002 | [2] 0.059 | [3] 0.01 | [4] -0.095 | [5] -0.003 | [6] 0 | [7] -0.027 | [8] 0.046 | IRAK-1-4 Inhibitor I 0.002

Further records.

SHTN1 (UniProt A0MZ66)
inactive: erlotinib -0.023 | [1] -0.08 | [2] 0.02 | [3] 0.009 | [4] -0.024 | [5] 0.015 | [6] -0.026 | [7] 0.008 | [8] -0.005 | IRAK-1-4 Inhibitor I -0.011

SIKE1 (UniProt Q9BRV8)
inactive: erlotinib -0.032 | [1] 0.043 | [2] -0.039 | [3] 0.042 | [4] -0.043 | [5] 0.033 | [6] -0.071 | [7] -0.01 | [8] -0.016 | IRAK-1-4 Inhibitor I 0.006

SERPINB9 (UniProt P50453)
inactive: erlotinib -0.013 | [1] 0.028 | [2] 0.025 | [3] -0.014 | [4] -0.017 | [5] -0.008 | [6] 0.01 | [7] 0.002 | [8] 0.002 | IRAK-1-4 Inhibitor I -0.013

SERF2 (UniProt P84101)
inactive: erlotinib -0.057 | [1] -0.08 | [2] 0.066 | [3] -0.026 | [4] -0.042 | [5] -0.02 | [6] 0.093 | [7] -0.052 | [8] -0.038 | IRAK-1-4 Inhibitor I -0.022

SLC12A4 (UniProt Q9UP95)
inactive: erlotinib -0.029 | [1] 0 | [2] -0.029 | [3] 0.079 | [4] 0.035 | [5] -0.041 | [6] -0.239 | [7] -0.078 | [8] 0.015 | IRAK-1-4 Inhibitor I -0.044

SLC16A1 (UniProt P53985)
inactive: erlotinib -0.007 | [1] -0.038 | [2] 0.036 | [3] 0.029 | [4] -0.018 | [5] 0.034 | [6] 0.034 | [7] -0.024 | [8] 0.004 | IRAK-1-4 Inhibitor I 0.032

SHMT2 (UniProt P34897)
inactive: erlotinib 0.001 | [1] 0.044 | [2] -0.005 | [3] -0.01 | [4] 0.012 | [5] -0.007 | [6] 0.02 | [7] 0.012 | [8] -0.01 | IRAK-1-4 Inhibitor I 0.025

SH3BGRL2 (UniProt Q9UJC5)
inactive: erlotinib 0.007 | [1] -0.109 | [2] 0.035 | [3] 0.045 | [4] -0.049 | [5] 0.01 | [6] 0.018 | [7] -0.087 | [8] 0.034 | IRAK-1-4 Inhibitor I 0.007

SHCBP1 (UniProt Q8NEM2)
inactive: erlotinib 0.034 | [1] 0.01 | [2] -0.035 | [3] -0.023 | [4] 0.007 | [5] 0.032 | [6] 0.005 | [7] 0.014 | [8] -0.014 | IRAK-1-4 Inhibitor I 0.018

SIPA1 (UniProt Q96FS4)
inactive: erlotinib -0.051 | [1] -0.161 | [2] 0.019 | [3] 0.064 | [4] -0.021 | [5] 0.022 | [6] -0.084 | [7] -0.067 | [8] 0.062 | IRAK-1-4 Inhibitor I 0.022

SKA3 (UniProt Q8IX90)
inactive: erlotinib 0.018 | [1] -0.081 | [2] 0.02 | [3] -0.01 | [4] -0.052 | [5] -0.022 | [6] 0.001 | [7] -0.02 | [8] 0.042 | IRAK-1-4 Inhibitor I 0.013

SFR1 isoform 2 (UniProt Q86XK3)
inactive: erlotinib -0.009 | [1] -0.019 | [2] 0.067 | [3] 0.015 | [4] -0.051 | [5] 0.018 | [6] 0.025 | [7] 0.04 | [8] 0.01 | IRAK-1-4 Inhibitor I 0.001

SH3BP5 (UniProt O60239)
inactive: erlotinib -0.048 | [1] -0.043 | [2] 0.052 | [3] -0.069 | [4] 0.009 | [5] 0.053 | [6] -0.088 | [7] 0.007 | [8] -0.001 | IRAK-1-4 Inhibitor I -0.036

SFPQ (UniProt P23246)
inactive: erlotinib -0.012 | [1] 0.1 | [2] 0.019 | [3] -0.014 | [4] -0.009 | [5] -0.004 | [6] -0.031 | [7] 0.007 | [8] -0.01 | IRAK-1-4 Inhibitor I -0.006

SLC19A1 (UniProt P41440)
inactive: erlotinib -0.032 | [1] -0.024 | [2] 0.049 | [3] -0.04 | [4] -0.025 | [5] -0.001 | [6] -0.017 | [7] -0.023 | [8] 0.023 | IRAK-1-4 Inhibitor I 0.033
